Inconclusive results, whose numbers are uncertain, are shown with a selection of clear calls. For part of these data: Where the call is inconclusive, the potency comes from a doubtful curve fit. The source made the active and inactive calls. Calls follow the shape of the dose curve; as a rule, active = well fitted curve in the direction sought with a large enough effect; inconclusive = small, poorly fitted or top-dose-only effect, or another doubt; inactive = no such curve, though single readings can be large; an effect the other way counts as inactive or inconclusive.
What was measured:
[1] = Quantitative High-Throughput drug screen in 47 multiple myeloma cell lines against the NCATS MIPE library collection: Karpas417_ECACC cell viability assay (AID 1918961); details: Karpas417 myeloma viability, CellTiter-Glo ATP luminescence, 48 h; viability (% of DMSO): at 45.8 µM (top of the series); also: potency is read from the fitted curve at half-maximal effect
Summary of the method: (§1)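 Steps: seed 500 cells per well; pin-transfer MIPE 4.0 library; incubate 48 h at 37C, 5% CO2, humidified; add CellTiter-Glo, 5 min room temperature; read luminescence.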

[2] = Quantitative High-Throughput drug screen in 47 multiple myeloma cell lines against the NCATS MIPE library collection: JIM1_ECACC cell viability assay (AID 1918964; also: potency is read from the fitted curve at half-maximal effect); details: JIM1 myeloma viability, CellTiter-Glo ATP luminescence, 48 h; viability (% of DMSO): at 45.8 µM (top of the series)
Summary of the method: as §1

[3] = Quantitative High-Throughput drug screen in 47 multiple myeloma cell lines against the NCATS MIPE library collection: INA6_PLB cell viability assay (AID 1918965; also: nearly all actives have a fitted effect of over 55% in size; also: potency is read from the fitted curve at half-maximal effect); details: INA6 myeloma viability, CellTiter-Glo ATP luminescence, 48 h; series mostly up to 45.8 µM
Summary of the method: as §1

[4] = Quantitative High-Throughput drug screen in 47 multiple myeloma cell lines against the NCATS MIPE library collection: JJN3_DSMZ cell viability assay (AID 1918966; also: nearly all actives have a fitted effect of over 50% in size; also: potency is read from the fitted curve at half-maximal effect)
Summary of the method: as §1

[5] = Quantitative High-Throughput drug screen in 47 multiple myeloma cell lines against the NCATS MIPE library collection: KMS27_JCRB cell viability assay (AID 1918970); details: KMS27 myeloma cells, CellTiter-Glo ATP viability, 48 h; viability (% of DMSO): at 45.8 µM (top of the series); also: nearly all actives have a fitted effect of over 30% in size; also: potency is read from the fitted curve at half-maximal effect
Summary of the method: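 CellTiter-Glo luminescence after 48 h drug exposure at 37 °C; 500 cells/well, 1536-well format, pin-tool compound addition; DMSO = 100%, media-only = 0% viability.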

[6] = Quantitative High-Throughput drug screen in 47 multiple myeloma cell lines against the NCATS MIPE library collection: KMS12BM_JCRB cell viability assay (AID 1918971); also: nearly all actives have a fitted effect of over 35% in size; also: potency is read from the fitted curve at half-maximal effect
Summary of the method: (§2)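 We plated 500 myeloma cells per well, pinned in MIPE 4.0 compounds, and incubated for 48 hours at 37C. ATP was then quantified with CellTiter-Glo, with DMSO and media-only wells defining 100% and 0%.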

[7] = Quantitative High-Throughput drug screen in 47 multiple myeloma cell lines against the NCATS MIPE library collection: KMS12PE_JCRB cell viability assay (AID 1918972); details: KMS12PE myeloma viability, CellTiter-Glo ATP, 48 h; viability: at 45.8 µM (top of the series); also: nearly all actives have a fitted effect of over 30% in size
Summary of the method: as §1

[8] = Quantitative High-Throughput drug screen in 47 multiple myeloma cell lines against the NCATS MIPE library collection: KMS20_JCRB cell viability assay (AID 1918973); details: CellTiter-Glo ATP, 48 h; viability (% of DMSO): at 45.8 µM (top of the series); also: nearly all actives have a fitted effect of over 45% in size; also: potency is read from the fitted curve at half-maximal effect
Summary of the method: as §1

[9] = Quantitative High-Throughput drug screen in 47 multiple myeloma cell lines against the NCATS MIPE library collection: KMS21BM_JCRB cell viability assay (AID 1918974); details: ATP luminescence, 48 h; viability: at 45.8 µM (top of the series); also: potency is read from the fitted curve at half-maximal effect
Summary of the method: as §1

[10] = Quantitative High-Throughput drug screen in 47 multiple myeloma cell lines against the NCATS MIPE library collection: KMS26_JCRB cell viability assay (AID 1918975); details: KMS26 myeloma cells viability, CellTiter-Glo ATP, 48 h; viability (% of DMSO): at 45.8 µM (top of the series); also: nearly all actives have a fitted effect of over 45% in size; also: potency is read from the fitted curve at half-maximal effect
Summary of the method: as §2

[11] = Quantitative High-Throughput drug screen in 47 multiple myeloma cell lines against the NCATS MIPE library collection: MOLP8_DSMZ cell viability assay (AID 1918977); also: nearly all actives have a fitted effect of over 45% in size; also: potency is read from the fitted curve at half-maximal effect
Summary of the method: (§3)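 Inhibition of viability over 48 h was scored by ATP content (CellTiter-Glo) in 500-cell wells. Zero and full viability were defined by media-only and DMSO-only wells.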

[12] = Quantitative High-Throughput drug screen in 47 multiple myeloma cell lines against the NCATS MIPE library collection: MM1S_ATCC cell viability assay (AID 1918980); also: nearly all actives have a fitted effect of over 45% in size; also: potency is read from the fitted curve at half-maximal effect
Summary of the method: as §3

[13] = Quantitative High-Throughput drug screen in 47 multiple myeloma cell lines against the NCATS MIPE library collection: MM1R_ATCC cell viability assay (AID 1918981); also: nearly all actives have a fitted effect of over 35% in size; also: potency is read from the fitted curve at half-maximal effect
Summary of the method: as §3

[14] = Quantitative High-Throughput drug screen in 47 multiple myeloma cell lines against the NCATS MIPE library collection: Karpas25_ECACC cell viability assay (AID 1918968; also: nearly all actives have a fitted effect of over 35% in size)
Summary of the method: as §1

[15] = Quantitative High-Throughput drug screen in 47 multiple myeloma cell lines against the NCATS MIPE library collection: MMM1_PLB cell viability assay (AID 1918976); also: potency is read from the fitted curve at half-maximal effect; nearly all actives have a fitted effect of over 35% in size
Summary of the method: as §3

[16] = Quantitative High-Throughput drug screen in 47 multiple myeloma cell lines against the NCATS MIPE library collection: OCIMY1_PLB cell viability assay (AID 1918979); also: nearly all actives have a fitted effect of over 35% in size; also: potency is read from the fitted curve at half-maximal effect
Summary of the method: as §3

[17] = Quantitative High-Throughput drug screen in 47 multiple myeloma cell lines against the NCATS MIPE library collection: NCIH929_DSMZ cell viability assay (AID 1918978); details: NCI-H929 myeloma viability, CellTiter-Glo ATP, 48 h; series mostly up to 45.8 µM
Summary of the method: as §3

[18] = Quantitative High-Throughput drug screen in 47 multiple myeloma cell lines against the NCATS MIPE library collection: KHM11_PLB cell viability assay (AID 1918962); details: KHM11 myeloma cell viability, CellTiter-Glo ATP luminescence, 48 h; series mostly up to 45.8 µM
Summary of the method: (§4)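 Luminescent ATP measurement with CellTiter-Glo gives viability, scaled between DMSO-only wells (100%) and media-only wells (0%). Cells, 500 per well, faced library compounds for 48 hours at 37C.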

[19] = Quantitative High-Throughput drug screen in 47 multiple myeloma cell lines against the NCATS MIPE library collection: JIM3_ECACC cell viability assay (AID 1918963; also: nearly all actives have a fitted effect of over 35% in size); details: JIM3 myeloma viability, CellTiter-Glo ATP, 48 h; series mostly up to 45.8 µM
Summary of the method: as §4

Measured: Potency

COC(=O)C1=CCCN(C)C1
inconclusive: [1] 52.6 nM [cytotoxic, full curve, poor fit] | [2] 26.4 nM [cytotoxic, full curve, poor fit] | [3] 8.3 nM [rising, full curve, poor fit] | [4] 4.7 nM [cytotoxic, full curve, poor fit] | [8] 2090 nM [cytotoxic, full curve, poor fit] | [9] 372 nM [cytotoxic, full curve, poor fit] | [10] 23.5 nM [cytotoxic, full curve, poor fit] | [11] 8330 nM [cytotoxic, full curve, poor fit] | [12] 5900 nM [cytotoxic, partial curve, poor fit]
inactive: [6] | [7] | [13]
active: [5] 3 nM

CC(N[C@H]1C[C@H]1c1ccccc1)c1ccc2c(c1)OCCO2 (stereo partly drawn)
active: [8] 1 nM | [10] 5260 nM
inactive: [2] | [3] | [14] | [7] | [16] | [13]
inconclusive: [1] 2.1 nM [cytotoxic, full curve, poor fit] | [4] 29.6 nM [cytotoxic, full curve, poor fit] | [9] 20900 nM [rising, partial curve] | [15] 1660 nM [cytotoxic, full curve, poor fit] | [11] 2640 nM [cytotoxic, partial curve, poor fit] | [12] 37200 nM [cytotoxic, single point]

CNC(=O)N1N=C(c2ccc(N)cc2)c2cc3c(cc2CC1C)OCO3 (stereo not drawn)
inconclusive: [2] 9350 nM [cytotoxic, full curve, poor fit] | [6] 4690 nM [cytotoxic, full curve] | [8] 3320 nM [cytotoxic, partial curve, poor fit] | [11] 3720 nM [cytotoxic, full curve, poor fit] | [17] 2960 nM [cytotoxic, full curve] | [13] 11800 nM [cytotoxic, partial curve]
active: [1] 1870 nM | [4] 1320 nM | [9] 1480 nM | [15] 14800 nM | [12] 16600 nM
inactive: [16]

C[C@@H]1[C@H](O)[C@@H](C)C=CC=CCCC=CC=CC=CC=C[C@H](O[C@H]2O[C@@H](C)[C@H](O)[C@@H](N)[C@@H]2O)CC2O[C@](O)(C[C@@H](O)[C@H](O)CC[C@@H](O)C[C@@H](O)C[C@@H](O)CC(=O)O[C@H]1C)C[C@H](O)[C@H]2C(=O)O
inactive: [19] | [2] | [4] | [14] | [5] | [11] | [12]
inconclusive: [18] 296 nM [cytotoxic, full curve, poor fit] | [3] 1.2 nM [rising, full curve, poor fit] | [6] 20900 nM [cytotoxic, partial curve, poor fit] | [8] 3.7 nM [rising, full curve, poor fit] | [9] 1.9 nM [rising, full curve, poor fit] | [15] 16.6 nM [cytotoxic, full curve, poor fit]

COc1cc(OC)c(OC)cc1C=O
active: [5] 4.7 nM
inconclusive: [18] 4180 nM [rising, partial curve, poor fit] | [4] 11800 nM [rising, single point] | [6] 93.5 nM [rising, full curve, poor fit] | [15] 8.3 nM [rising, full curve] | [11] 13200 nM [rising, partial curve, poor fit] | [12] 29.6 nM [rising, full curve, poor fit]
inactive: [2] | [3] | [8] | [9] | [10] | [16] | [13]

C[C@@H]1O[C@@H](O[C@H]2C[C@@H](O)[C@]3(CO)[C@H]4[C@H](O)C[C@]5(C)[C@@H](C6=CC(=O)OC6)CC[C@]5(O)[C@@H]4CC[C@]3(O)C2)[C@H](O)[C@H](O)[C@H]1O
active: [4] 105 nM | [6] 66.2 nM | [8] 23.5 nM | [17] 59 nM | [16] 20.9 nM
inconclusive: [15] 66.2 nM [cytotoxic, full curve] | [11] 41.8 nM [cytotoxic, full curve]

CC[C@@H]1[C@@H](C)O[C@@](O)([C@@H](C)[C@H](O)[C@H](C)[C@H]2OC(=O)C=CC=C[C@@H](C)[C@@H]([C@@H](C)[C@@H](O)[C@H](C)[C@@]3(O)C[C@H](O[C@H]4C[C@H](O)[C@H](O)[C@H](C)O4)[C@H](CC)[C@@H](C)O3)OC(=O)C=CC=C[C@@H]2C)C[C@H]1O[C@H]1C[C@H](O)[C@H](O)[C@H](C)O1
inconclusive: [1] 93.5 nM [cytotoxic, full curve, poor fit]
active: [2] 264 nM | [8] 833 nM | [11] 418 nM | [16] 833 nM
